Some of the results follow.
What follows are compounds tested on T1, CTL2-GFP (C. trachomatis L2/434/Bu, GFP-expressing). Conditions: bulk GFP, single well; 28.5 h, 10 µM; inhibitor.
T1 construct: L2/434/Bu, GFP-expressing
Design: species or system HeLa; Intracellular C. trachomatis growth in HeLa cells, bulk GFP fluorescence relative to DMSO

Compared with `COCC1OC(n2cc(C)c(=O)[nH]c2=O)CC1O` (stereo not shown) [CBK201338], `COc1ccc(Cl)cc1CN(C)C(=O)c1ccc[nH]c1=O` [CBK305933] is lower in “% of control remaining” value: 162.956% for the first, 130.193% for the second.

Going from `Cc1ccc2c(c1)oc(=O)n2CCNC(=O)c1cccs1` [CBK284472] to `O=C(CCCN1C(=O)/C(=C\c2cccs2)SC1=S)Nc1cc(Cl)ccc1O` [CBK263673], the “% of control remaining” value rises from 87.8664% to 100%.

Going from `CCOc1ccc(-n2c(SCc3nc4ccccc4[nH]3)nc3sc4c(c3c2=O)CCCC4)cc1` [CBK264581] to `COc1ccc(C2CC(c3nc4ccccc4[nH]3)=NN2C(=O)CCN2CCCCC2)cc1` (stereo not shown) [CBK267673], the “% of control remaining” value falls from 119.494% to 102.371%.

Going from `CC(C)(C)NCC(O)COc1cccc2c3c(oc12)CCCC3` (stereo not shown) [CBK008871C] to `CC(C)(C)c1[nH]c2ncccc2c1CN1CCSCC1` [CBK285340], the “% of control remaining” value rises from 96.5732% to 146.879%.

Going from `O=C1N=C(NCC2CCCCC2)SC1CC(=O)N1Cc2ccccc2C1` (stereo not shown) [CBK067016] to `CN1CC(C(=O)NCC(c2ccccc2)N2CCCCCC2)CC1=O` (stereo not shown) [CBK282008], the “% of control remaining” value falls from 140.849% to 100.36%.

Compared with `CCCCCc1nc(N)c(-c2cccc(Br)c2)c(C#N)c1CCCC` [CBK026574], `CCCCc1ccc(-c2ccc3ccc(NC(=O)C(C)C)nc3n2)cc1` [CBK073668] is higher in “% of control remaining” value: 104.474% for the first, 134.812% for the second.

Compared with `CN1CCC(N2CCN(C(=O)NCc3ccc(Cl)c(Cl)c3)CC2)CC1` [CBK155883], `Cn1ccc(C2CCCCCN2C(=O)c2c(Cl)cnn2C)n1` (stereo not shown) [CBK284914] is higher in “% of control remaining” value: 97.8528% for the first, 139.145% for the second.

Going from `Cc1nc(C(C)NC(=O)CCc2cnn(C)c2)c(C)s1` (stereo not shown) [CBK307064] to `Cc1ccc2c(CC(=O)N3CCNCC3c3cnn(C)c3)coc2c1C` (stereo not shown) [CBK304271C], the “% of control remaining” value falls from 113.933% to 101.922%.

Going from `O=S(=O)(c1ccc(I)cc1)n1ccc2c(N3CCNCC3)cncc21` [CBK081326C] to `O=S(=O)(c1ccc(F)c(F)c1F)n1ccc2c(N3CCNCC3)nccc21` [CBK059066C], the “% of control remaining” value rises from 105.962% to 113.177%.

First: O=C(NCCc1c[nH]c2ccc(F)cc12)Nc1ccccc1 [CBK269964]
Second: Cc1cc2n(n1)C(c1ccc(C(=O)O)cc1)Nc1ccccc1-2 (stereo not shown) [CBK287000]
The “% of control remaining” value of the first is lower: 63.6327% for the first, 124.824% for the second.

Compared with `O=C(c1c(F)cccc1F)N1C2CCC1c1snnc1C2` (stereo not shown) [CBK284990], `N#Cc1cc(Cl)ccc1CN1CCCCC1c1[nH]ncc1C(N)=O` (stereo not shown) [CBK304746] is lower in “% of control remaining” value: 115.763% for the first, 113.099% for the second.

First: Cn1c(=O)n(C)c2cc(CNCc3ccccn3)ccc21 [CBK288118]
Second: Nc1ncc(-c2cccnc2)nc1NCc1ccccc1 [CBK063349]
The “% of control remaining” value of the first is lower: 126.653% for the first, 214.745% for the second.

Going from `CCOC(=O)N1CCC(NS(=O)(=O)Cc2ccccc2)CC1` [CBK045457] to `CCOC(=O)N1CCN(Cn2nc(COc3ccccc3)n(C)c2=S)CC1` [CBK265148], the “% of control remaining” value rises from 108.138% to 130.757%.

Going from `Cc1nc2cc(C(=O)O)ccc2n1CCO` [CBK260949] to `CCN(Cc1nc(-c2ccccc2)no1)C(=O)c1ccoc1C` [CBK270229], the “% of control remaining” value rises from 121.067% to 148.76%.

Compared with `COc1ccc2cc(/C=C(\C#N)c3nc(-c4cc5ccccc5oc4=O)cs3)c(Cl)nc2c1` [CBK261623], `CCN(CC)CCn1c(NC(=O)c2c(Cl)nc3ccccn23)nc2ccccc21` [CBK298305] is higher in “% of control remaining” value: 116.501% for the first, 121.232% for the second.

Going from `c1ccc(OCCCCN2CCCC23CCc2[nH]c4ccccc4c2C3)cc1` (stereo not shown) [CBK092200T] to `O=C(c1ccc2nc[nH]c2c1)N1CCC2(CCN(Cc3ccccc3)C2)C1` (stereo not shown) [CBK136862], the “% of control remaining” value rises from 97.6296% to 127.043%.

First: Cn1ccc2cc(-c3cn4ccnc4c(N4CCOCC4)n3)ccc21 [CBK066696]
Second: c1ccc2c(c1)nc(N1CCOCC1)n2CCN1CCOCC1 [CBK269841]
The “% of control remaining” value of the first is lower: 108.033% for the first, 111.056% for the second.

Compared with `O=C(NC1CCCCC1)N[C@H]1CO[C@H]2[C@@H]1OC[C@@H]2n1cc(CC2CCCCC2)nn1` [CBK289510], `O=C(N[C@H]1CO[C@H]2[C@@H]1OC[C@@H]2n1cc(CC2CCCCC2)nn1)C1CC1` [CBK289509] is lower in “% of control remaining” value: 145.077% for the first, 117.49% for the second.

Going from `CCN(CC)CCSc1nc(O)c(-c2ccccc2)c(=O)n1-c1ccccc1` [CBK263335C] to `COCCn1c(SC)nc2sc(-c3ccccc3)cc2c1=O` [CBK295200], the “% of control remaining” value rises from 86.2551% to 144.33%.

First: CC(=O)N1C[C@@H]2C[C@H](C1)c1ccc(NC(=O)c3ccc(C#N)cc3)c(=O)n1C2 [CBK289202]
Second: O=C(Nc1ccc2n(c1=O)C[C@H]1C[C@@H]2CN(C(=O)Nc2ccc(F)cc2)C1)c1ccco1 [CBK289205]
The “% of control remaining” value of the first is lower: 137.414% for the first, 146.318% for the second.

First: c1ccc2c(c1)NCC21CCNCC1 [CBK022583]
Second: Cc1nc(CN2CCC3(CC2)CN(C(=O)CO)c2ccccc23)cs1 [CBK131523]
The “% of control remaining” value of the first is lower: 100.426% for the first, 165.535% for the second.

First: CSCC[C@H](NC(=O)Nc1ccc(N2CCC(C)CC2)cc1)C(=O)O [CBK286743]
Second: O=C(O)CCC(NC(=O)c1ccc(-c2ccc(Cl)cc2)s1)C(=O)O (stereo not shown) [CBK295171]
The “% of control remaining” value of the first is lower: 128.695% for the first, 186.239% for the second.

First: COc1cc(S(=O)(=O)NCCOc2ccc(C(=O)O)cc2)c(OC)cc1Cl [CBK299825]
Second: Cc1cc(Cl)c(S(=O)(=O)NCc2cccs2)cc1OCC(N)=O [CBK266496]
The “% of control remaining” value of the first is lower: 126.59% for the first, 143.072% for the second.

First: C[N+]1(C)CCCC1c1cc(Br)cnc1N (stereo not shown) [CBK217873I]
Second: Cc1ccc(Oc2ncccc2[N+](=O)[O-])c(Br)c1 [CBK002822]
The “% of control remaining” value of the first is higher: 108.94% for the first, 99.3885% for the second.

First: O=C(/C=C/c1ccco1)Nc1sc2c(c1C(=O)NCc1ccco1)CCC2 [CBK265616]
Second: O=C(CCCSc1nc2sc3c(c2c(=O)[nH]1)CCCC3)NCCO [CBK263336]
The “% of control remaining” value of the first is lower: 106.939% for the first, 129.875% for the second.

Compared with `O=C1CCCN1CCOc1nccnc1-c1ccc(F)cc1` [CBK106895], `O=[N+]([O-])c1cccnc1Oc1cccc2cccnc12` [CBK002760] is higher in “% of control remaining” value: 99.1031% for the first, 119.646% for the second.

Going from `CCC(C(=O)Nc1ccccc1C(=O)Nc1c(Cl)cccc1Cl)c1ccccc1` (stereo not shown) [CBK266068] to `O=C(O)c1cccc(NS(=O)(=O)c2ccc(Cl)c(C(=O)Nc3ccc(Br)cc3)c2)c1` [CBK263241], the “% of control remaining” value falls from 115.653% to 107.307%.

Compared with `O=C(c1ccccc1)N1CCC(c2cc3ncccc3[nH]2)CC1` [CBK283385], `OCCN1CCN(c2cc(Nc3ccc(Oc4ccccc4)cc3)nc3ccnn23)CC1` [CBK037185] is higher in “% of control remaining” value: 130.142% for the first, 184.526% for the second.

Compared with `COc1cc(-c2cc(N3CCN(CCN4CCCC4)CC3)ncn2)cc(OC)c1OC` [CBK037841], `CCOC(=O)c1cnc2c(C)cc(C)cc2c1NCCN1CCOCC1` [CBK264757] is higher in “% of control remaining” value: 106.181% for the first, 109.693% for the second.

Compared with `OC(Cn1cnc(-c2ccccc2)c1-c1ccccc1)Cn1c2ccccc2c2ccccc21` (stereo not shown) [CBK261416], `O=C(CSc1nnc(-c2ccncc2)n1-c1ccccc1)Nc1ccnc2ccccc12` [CBK267900] is higher in “% of control remaining” value: 100% for the first, 108.189% for the second.

Compared with `Cc1ccc(C(=O)NCc2ccc(-c3n[nH]cc3C(=O)N(C)Cc3ccccc3)cc2)cc1` [CBK285598], `O=C(Nc1ccc(Cc2ccncc2)cc1)c1ccc(CSc2ccc(Cl)cc2)cc1` [CBK262526] is lower in “% of control remaining” value: 105.499% for the first, 100% for the second.

Compared with `COc1ccc([N+](=O)[O-])cc1NC(=O)c1nc(C)c(C)nc1C(=O)O` [CBK103387], `CCn1cc(C(=O)O)c(=O)c2cnc(N3CCN(C(=S)NC(=O)c4c(-c5ccccc5)noc4C)CC3)nc21` [CBK267491] is higher in “% of control remaining” value: 114.754% for the first, 153.302% for the second.

First: CCn1c(SCC(=O)Nc2nc(C)c(C(=O)OC)s2)nc2c1c(=O)n(C)c(=O)n2C [CBK127470]
Second: Cc1nnc(SCCCNC(=O)C2CC(=O)N(Cc3ccccn3)C2)s1 (stereo not shown) [CBK307529]
The “% of control remaining” value of the first is lower: 116.748% for the first, 126.37% for the second.

Compared with `Fc1ccc(CN(Cc2ccsc2)[C@@H]2COC[C@H]2c2ccc(F)cc2)cc1` [CBK286486], `O=C1COc2ccc(S(=O)(=O)NCc3ccccc3)cc2N1` [CBK270156] is higher in “% of control remaining” value: 121.161% for the first, 152.74% for the second.

Going from `Cc1cc2c([nH]c3ccccc32)c(C)n1` [CBK262689] to `CCOc1ccccc1OCC(C)CNC` (stereo not shown) [CBK026242G], the “% of control remaining” value rises from 81.132% to 105.003%.

Compared with `N#Cc1ccnc(N2CCC3(CCCN(CC4CCCCC4)C3=O)C2)c1` (stereo not shown) [CBK306561], `CCCC(=O)NC1CC(C)(C)Cc2nc(N3CCOCC3)ncc21` (stereo not shown) [CBK306883] is lower in “% of control remaining” value: 100.7% for the first, 80.9936% for the second.

Compared with `COc1ccc(-c2cncc(N[C@@H](CO)C(C)C)n2)cc1` [CBK037941], `C=CCSc1nnc(-c2ccc(OCCC)cc2)[nH]1` [CBK267323] is lower in “% of control remaining” value: 199.893% for the first, 84.1513% for the second.

Compared with `CCN(Cc1ccncc1)C(=O)Nc1cccnc1` [CBK145053], `Cc1ccc(C23CC4CC(CC(C(=O)NC(C(=O)O)C(C)C)(C4)C2)C3)cc1` (stereo not shown) [CBK264924] is higher in “% of control remaining” value: 104.666% for the first, 129.239% for the second.

First: CSc1nn(C)c(=O)c2c3c(sc12)CCC3 [CBK019796]
Second: CC(=O)NCCn1cc2c(n1)[C@H]1CN(C(=O)CC(C)C)C[C@H]1CC2 [CBK284572]
The “% of control remaining” value of the first is higher: 128.663% for the first, 120.464% for the second.

In the case of `Cc1cc(C)c(C)c(S(=O)(=O)NCCCC(=O)O)c1C` [CBK268898], the “% of control remaining” value is reported as 133.063%.

Reference: publication PMC12040169 (PLOS Biology, 2025)
